Drawing on publication PMC6028381, this text covers binding for 1 substance.

Amino acid sequences for entries named in this document (tags omitted). A change or cut given only in a name is not applied to a line headed by its entry.
UniProt Q13315: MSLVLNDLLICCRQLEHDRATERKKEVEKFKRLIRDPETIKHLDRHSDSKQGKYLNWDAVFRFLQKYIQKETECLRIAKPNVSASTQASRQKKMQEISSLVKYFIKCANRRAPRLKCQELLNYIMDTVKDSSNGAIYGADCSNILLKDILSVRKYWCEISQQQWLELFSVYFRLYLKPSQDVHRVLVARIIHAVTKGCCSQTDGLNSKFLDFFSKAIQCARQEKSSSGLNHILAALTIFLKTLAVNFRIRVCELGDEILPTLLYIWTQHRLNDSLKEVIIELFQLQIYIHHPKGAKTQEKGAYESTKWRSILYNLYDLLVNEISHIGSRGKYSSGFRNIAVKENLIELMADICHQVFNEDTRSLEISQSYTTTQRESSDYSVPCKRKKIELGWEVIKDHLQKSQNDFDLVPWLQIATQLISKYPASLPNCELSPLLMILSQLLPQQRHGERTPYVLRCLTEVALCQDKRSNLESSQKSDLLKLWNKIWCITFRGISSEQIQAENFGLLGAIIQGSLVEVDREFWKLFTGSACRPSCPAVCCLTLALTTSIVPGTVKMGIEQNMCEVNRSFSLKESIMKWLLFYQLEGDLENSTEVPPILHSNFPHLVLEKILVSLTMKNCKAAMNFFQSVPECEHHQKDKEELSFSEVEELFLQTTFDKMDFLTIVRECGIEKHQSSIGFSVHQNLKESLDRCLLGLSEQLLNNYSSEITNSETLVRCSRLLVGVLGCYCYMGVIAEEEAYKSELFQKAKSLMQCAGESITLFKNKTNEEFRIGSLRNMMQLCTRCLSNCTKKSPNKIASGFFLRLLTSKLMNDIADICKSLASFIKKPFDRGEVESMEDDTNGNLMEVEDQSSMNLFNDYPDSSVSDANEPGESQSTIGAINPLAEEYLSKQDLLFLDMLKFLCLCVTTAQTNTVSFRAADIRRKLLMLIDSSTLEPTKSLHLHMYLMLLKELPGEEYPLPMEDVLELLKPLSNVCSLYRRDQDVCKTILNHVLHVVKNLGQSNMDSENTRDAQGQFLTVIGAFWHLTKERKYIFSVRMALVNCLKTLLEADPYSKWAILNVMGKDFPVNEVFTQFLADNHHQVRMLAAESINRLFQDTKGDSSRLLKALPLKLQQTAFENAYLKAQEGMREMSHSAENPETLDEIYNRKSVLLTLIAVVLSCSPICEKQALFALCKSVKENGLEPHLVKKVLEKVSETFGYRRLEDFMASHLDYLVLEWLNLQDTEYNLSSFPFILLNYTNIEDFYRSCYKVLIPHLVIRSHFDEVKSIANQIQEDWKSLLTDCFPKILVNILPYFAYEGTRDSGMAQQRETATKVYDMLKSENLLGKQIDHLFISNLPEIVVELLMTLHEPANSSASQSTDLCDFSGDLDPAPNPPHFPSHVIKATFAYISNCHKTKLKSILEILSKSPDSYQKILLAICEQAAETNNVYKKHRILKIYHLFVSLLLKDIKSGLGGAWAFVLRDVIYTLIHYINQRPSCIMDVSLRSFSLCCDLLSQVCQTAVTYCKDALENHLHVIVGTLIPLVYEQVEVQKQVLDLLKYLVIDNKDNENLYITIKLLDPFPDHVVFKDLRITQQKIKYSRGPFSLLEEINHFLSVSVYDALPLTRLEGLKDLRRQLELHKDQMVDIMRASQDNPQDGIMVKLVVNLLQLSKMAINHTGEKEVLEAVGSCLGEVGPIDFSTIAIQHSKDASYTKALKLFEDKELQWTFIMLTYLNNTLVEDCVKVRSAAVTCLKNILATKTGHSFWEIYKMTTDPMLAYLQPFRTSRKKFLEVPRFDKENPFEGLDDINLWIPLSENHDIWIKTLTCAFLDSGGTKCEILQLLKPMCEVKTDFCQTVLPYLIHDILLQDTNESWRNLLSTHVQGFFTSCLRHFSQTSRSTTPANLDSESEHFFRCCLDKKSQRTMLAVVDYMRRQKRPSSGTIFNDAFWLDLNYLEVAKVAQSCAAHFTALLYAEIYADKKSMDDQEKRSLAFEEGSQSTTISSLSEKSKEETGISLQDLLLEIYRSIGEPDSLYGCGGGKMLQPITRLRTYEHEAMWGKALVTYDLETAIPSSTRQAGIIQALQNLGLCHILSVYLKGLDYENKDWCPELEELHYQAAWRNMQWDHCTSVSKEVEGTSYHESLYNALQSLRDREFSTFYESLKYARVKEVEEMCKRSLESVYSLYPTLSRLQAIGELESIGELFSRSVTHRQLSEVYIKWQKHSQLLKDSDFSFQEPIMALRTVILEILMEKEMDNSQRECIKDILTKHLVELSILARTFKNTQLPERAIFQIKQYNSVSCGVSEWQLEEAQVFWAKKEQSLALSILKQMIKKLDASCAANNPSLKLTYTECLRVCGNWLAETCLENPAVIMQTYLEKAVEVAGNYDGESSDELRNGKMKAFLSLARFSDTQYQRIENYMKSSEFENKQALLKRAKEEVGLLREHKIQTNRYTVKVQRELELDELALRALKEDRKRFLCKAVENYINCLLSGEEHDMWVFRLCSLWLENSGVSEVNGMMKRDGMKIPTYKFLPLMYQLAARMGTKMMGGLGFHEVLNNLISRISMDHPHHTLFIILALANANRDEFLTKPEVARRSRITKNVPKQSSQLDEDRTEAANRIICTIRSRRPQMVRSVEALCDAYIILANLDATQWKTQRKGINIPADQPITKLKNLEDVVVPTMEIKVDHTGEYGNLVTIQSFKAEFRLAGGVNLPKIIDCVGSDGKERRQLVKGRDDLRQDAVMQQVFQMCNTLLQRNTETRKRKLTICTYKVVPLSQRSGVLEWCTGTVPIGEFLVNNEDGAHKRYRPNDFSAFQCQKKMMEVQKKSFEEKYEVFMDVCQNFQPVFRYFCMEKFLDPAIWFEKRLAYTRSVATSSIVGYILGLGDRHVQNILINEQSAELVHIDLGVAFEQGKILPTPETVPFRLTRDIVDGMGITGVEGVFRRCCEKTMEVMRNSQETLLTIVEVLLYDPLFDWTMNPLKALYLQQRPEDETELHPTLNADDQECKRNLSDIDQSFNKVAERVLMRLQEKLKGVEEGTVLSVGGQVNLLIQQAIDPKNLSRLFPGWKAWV
UniProt P16403: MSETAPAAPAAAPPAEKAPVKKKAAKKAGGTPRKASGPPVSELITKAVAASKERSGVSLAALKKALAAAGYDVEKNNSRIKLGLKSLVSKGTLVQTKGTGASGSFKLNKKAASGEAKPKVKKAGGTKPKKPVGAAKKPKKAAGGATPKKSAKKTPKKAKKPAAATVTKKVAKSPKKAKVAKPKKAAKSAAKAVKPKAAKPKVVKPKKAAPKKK

This assay has as its target ATM (ataxia telangiectasia mutated), endogenous in HeLa cells (human (endogenous in HeLa)) (UniProt Q13315). The assay is described as follows: affinity purification with mass spectrometry; total HeLa cell lysates immunoprecipitated with anti-ATM or anti-IgG antibodies; SDS-PAGE, silver staining, mass spectrometry.

These are yes or no findings as the source states them, for the method shown. Binding seen in cells or lysates may run through a third protein. A yes stands for co-enrichment or nearness to the bait. Other partners may have been found.

For the substance “linker histone H1.2, endogenous in HeLa cells (from UniProt P16403 1-213)”, the binding entry is “binds”.
